No constants are given. Whether binding was seen depends on the method and setting. In cells and extracts the contact can be indirect. Some results given as binding are weak or reduced against the parent protein; the word gives no strength.
Target: Estrogen receptor α (human (endogenous in MCF7)) (UniProt P03372)
Assay: co-IP; endogenous proteins from MCF7 cells with or without Flag-HA-MOF overexpression; BC-200 lysis buffer (20 mM HEPES, 200 mM KCl, 10 mM β-mercaptoethanol, 1 mM EDTA, 10% glycerol, 0.1% NP-40); 1 μg of antibody, Protein A/G magnetic beads; detected by Western blotting

By UniProt entry, the sequences of proteins in these tests, tags left out.
UniProt P03372: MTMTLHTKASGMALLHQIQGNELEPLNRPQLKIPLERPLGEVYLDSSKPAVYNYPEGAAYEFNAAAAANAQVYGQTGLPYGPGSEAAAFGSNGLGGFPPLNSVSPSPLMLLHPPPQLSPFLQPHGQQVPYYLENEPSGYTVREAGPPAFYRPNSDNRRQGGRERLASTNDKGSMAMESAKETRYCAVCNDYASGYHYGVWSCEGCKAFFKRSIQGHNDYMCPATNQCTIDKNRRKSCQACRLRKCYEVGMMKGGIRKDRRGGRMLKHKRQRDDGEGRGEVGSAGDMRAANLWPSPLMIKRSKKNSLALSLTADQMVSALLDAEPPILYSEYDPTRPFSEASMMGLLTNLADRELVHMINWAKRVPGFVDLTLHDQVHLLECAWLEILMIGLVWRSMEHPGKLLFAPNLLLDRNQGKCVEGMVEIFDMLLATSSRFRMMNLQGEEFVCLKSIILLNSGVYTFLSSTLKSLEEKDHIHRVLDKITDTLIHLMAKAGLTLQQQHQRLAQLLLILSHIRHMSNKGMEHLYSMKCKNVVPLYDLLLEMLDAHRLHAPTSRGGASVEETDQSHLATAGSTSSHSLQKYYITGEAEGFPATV
UniProt Q13620: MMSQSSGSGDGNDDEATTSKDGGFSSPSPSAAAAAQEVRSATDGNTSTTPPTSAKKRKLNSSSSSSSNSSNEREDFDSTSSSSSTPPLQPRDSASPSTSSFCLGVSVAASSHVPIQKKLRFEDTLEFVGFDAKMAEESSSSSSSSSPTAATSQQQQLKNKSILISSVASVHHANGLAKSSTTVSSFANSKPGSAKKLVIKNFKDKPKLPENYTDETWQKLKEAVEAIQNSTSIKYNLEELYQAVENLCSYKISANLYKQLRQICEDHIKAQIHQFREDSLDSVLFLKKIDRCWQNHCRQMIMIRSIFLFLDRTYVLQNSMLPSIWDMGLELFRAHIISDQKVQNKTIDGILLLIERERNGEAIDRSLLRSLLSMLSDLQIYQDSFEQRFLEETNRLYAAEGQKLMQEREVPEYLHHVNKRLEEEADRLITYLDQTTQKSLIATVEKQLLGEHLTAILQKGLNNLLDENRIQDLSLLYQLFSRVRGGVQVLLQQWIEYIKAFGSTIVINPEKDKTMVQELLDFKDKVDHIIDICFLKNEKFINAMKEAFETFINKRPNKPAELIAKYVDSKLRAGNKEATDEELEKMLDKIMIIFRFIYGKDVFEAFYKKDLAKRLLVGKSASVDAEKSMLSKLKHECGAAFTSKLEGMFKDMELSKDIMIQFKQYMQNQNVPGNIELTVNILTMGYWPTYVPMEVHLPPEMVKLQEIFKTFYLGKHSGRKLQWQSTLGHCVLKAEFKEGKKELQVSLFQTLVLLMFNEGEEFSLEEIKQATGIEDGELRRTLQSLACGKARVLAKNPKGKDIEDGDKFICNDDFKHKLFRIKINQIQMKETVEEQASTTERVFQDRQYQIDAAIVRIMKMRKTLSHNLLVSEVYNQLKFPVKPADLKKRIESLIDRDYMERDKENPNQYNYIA

With Cullin 4b (from UniProt Q13620 1-913) the binding was “binds”.

Source: paper PMC9539768
